Laboratory results from the supplement of paper PMC10849652.
This is one part of the list. Residues, ends and D or L forms follow the SMILES beside them. *: point of attachment. Cbz = O=C(OCc1ccccc1)*

Amino acid sequences for entries named in this document (tags omitted). A change or cut given only in a name is not applied to a line headed by its entry.
UniProt Q96NA2: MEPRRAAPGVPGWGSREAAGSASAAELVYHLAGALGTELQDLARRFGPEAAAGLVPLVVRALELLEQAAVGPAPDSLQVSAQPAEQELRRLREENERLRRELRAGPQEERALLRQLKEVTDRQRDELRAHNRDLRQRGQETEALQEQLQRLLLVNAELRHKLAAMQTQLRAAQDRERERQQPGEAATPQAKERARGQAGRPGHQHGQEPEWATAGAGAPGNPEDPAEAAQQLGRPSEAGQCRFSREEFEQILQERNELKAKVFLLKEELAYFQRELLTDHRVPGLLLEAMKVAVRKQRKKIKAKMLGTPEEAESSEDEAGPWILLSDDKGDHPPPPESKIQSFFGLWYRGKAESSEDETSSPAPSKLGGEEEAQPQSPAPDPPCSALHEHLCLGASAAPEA
UniProt Q63HN8: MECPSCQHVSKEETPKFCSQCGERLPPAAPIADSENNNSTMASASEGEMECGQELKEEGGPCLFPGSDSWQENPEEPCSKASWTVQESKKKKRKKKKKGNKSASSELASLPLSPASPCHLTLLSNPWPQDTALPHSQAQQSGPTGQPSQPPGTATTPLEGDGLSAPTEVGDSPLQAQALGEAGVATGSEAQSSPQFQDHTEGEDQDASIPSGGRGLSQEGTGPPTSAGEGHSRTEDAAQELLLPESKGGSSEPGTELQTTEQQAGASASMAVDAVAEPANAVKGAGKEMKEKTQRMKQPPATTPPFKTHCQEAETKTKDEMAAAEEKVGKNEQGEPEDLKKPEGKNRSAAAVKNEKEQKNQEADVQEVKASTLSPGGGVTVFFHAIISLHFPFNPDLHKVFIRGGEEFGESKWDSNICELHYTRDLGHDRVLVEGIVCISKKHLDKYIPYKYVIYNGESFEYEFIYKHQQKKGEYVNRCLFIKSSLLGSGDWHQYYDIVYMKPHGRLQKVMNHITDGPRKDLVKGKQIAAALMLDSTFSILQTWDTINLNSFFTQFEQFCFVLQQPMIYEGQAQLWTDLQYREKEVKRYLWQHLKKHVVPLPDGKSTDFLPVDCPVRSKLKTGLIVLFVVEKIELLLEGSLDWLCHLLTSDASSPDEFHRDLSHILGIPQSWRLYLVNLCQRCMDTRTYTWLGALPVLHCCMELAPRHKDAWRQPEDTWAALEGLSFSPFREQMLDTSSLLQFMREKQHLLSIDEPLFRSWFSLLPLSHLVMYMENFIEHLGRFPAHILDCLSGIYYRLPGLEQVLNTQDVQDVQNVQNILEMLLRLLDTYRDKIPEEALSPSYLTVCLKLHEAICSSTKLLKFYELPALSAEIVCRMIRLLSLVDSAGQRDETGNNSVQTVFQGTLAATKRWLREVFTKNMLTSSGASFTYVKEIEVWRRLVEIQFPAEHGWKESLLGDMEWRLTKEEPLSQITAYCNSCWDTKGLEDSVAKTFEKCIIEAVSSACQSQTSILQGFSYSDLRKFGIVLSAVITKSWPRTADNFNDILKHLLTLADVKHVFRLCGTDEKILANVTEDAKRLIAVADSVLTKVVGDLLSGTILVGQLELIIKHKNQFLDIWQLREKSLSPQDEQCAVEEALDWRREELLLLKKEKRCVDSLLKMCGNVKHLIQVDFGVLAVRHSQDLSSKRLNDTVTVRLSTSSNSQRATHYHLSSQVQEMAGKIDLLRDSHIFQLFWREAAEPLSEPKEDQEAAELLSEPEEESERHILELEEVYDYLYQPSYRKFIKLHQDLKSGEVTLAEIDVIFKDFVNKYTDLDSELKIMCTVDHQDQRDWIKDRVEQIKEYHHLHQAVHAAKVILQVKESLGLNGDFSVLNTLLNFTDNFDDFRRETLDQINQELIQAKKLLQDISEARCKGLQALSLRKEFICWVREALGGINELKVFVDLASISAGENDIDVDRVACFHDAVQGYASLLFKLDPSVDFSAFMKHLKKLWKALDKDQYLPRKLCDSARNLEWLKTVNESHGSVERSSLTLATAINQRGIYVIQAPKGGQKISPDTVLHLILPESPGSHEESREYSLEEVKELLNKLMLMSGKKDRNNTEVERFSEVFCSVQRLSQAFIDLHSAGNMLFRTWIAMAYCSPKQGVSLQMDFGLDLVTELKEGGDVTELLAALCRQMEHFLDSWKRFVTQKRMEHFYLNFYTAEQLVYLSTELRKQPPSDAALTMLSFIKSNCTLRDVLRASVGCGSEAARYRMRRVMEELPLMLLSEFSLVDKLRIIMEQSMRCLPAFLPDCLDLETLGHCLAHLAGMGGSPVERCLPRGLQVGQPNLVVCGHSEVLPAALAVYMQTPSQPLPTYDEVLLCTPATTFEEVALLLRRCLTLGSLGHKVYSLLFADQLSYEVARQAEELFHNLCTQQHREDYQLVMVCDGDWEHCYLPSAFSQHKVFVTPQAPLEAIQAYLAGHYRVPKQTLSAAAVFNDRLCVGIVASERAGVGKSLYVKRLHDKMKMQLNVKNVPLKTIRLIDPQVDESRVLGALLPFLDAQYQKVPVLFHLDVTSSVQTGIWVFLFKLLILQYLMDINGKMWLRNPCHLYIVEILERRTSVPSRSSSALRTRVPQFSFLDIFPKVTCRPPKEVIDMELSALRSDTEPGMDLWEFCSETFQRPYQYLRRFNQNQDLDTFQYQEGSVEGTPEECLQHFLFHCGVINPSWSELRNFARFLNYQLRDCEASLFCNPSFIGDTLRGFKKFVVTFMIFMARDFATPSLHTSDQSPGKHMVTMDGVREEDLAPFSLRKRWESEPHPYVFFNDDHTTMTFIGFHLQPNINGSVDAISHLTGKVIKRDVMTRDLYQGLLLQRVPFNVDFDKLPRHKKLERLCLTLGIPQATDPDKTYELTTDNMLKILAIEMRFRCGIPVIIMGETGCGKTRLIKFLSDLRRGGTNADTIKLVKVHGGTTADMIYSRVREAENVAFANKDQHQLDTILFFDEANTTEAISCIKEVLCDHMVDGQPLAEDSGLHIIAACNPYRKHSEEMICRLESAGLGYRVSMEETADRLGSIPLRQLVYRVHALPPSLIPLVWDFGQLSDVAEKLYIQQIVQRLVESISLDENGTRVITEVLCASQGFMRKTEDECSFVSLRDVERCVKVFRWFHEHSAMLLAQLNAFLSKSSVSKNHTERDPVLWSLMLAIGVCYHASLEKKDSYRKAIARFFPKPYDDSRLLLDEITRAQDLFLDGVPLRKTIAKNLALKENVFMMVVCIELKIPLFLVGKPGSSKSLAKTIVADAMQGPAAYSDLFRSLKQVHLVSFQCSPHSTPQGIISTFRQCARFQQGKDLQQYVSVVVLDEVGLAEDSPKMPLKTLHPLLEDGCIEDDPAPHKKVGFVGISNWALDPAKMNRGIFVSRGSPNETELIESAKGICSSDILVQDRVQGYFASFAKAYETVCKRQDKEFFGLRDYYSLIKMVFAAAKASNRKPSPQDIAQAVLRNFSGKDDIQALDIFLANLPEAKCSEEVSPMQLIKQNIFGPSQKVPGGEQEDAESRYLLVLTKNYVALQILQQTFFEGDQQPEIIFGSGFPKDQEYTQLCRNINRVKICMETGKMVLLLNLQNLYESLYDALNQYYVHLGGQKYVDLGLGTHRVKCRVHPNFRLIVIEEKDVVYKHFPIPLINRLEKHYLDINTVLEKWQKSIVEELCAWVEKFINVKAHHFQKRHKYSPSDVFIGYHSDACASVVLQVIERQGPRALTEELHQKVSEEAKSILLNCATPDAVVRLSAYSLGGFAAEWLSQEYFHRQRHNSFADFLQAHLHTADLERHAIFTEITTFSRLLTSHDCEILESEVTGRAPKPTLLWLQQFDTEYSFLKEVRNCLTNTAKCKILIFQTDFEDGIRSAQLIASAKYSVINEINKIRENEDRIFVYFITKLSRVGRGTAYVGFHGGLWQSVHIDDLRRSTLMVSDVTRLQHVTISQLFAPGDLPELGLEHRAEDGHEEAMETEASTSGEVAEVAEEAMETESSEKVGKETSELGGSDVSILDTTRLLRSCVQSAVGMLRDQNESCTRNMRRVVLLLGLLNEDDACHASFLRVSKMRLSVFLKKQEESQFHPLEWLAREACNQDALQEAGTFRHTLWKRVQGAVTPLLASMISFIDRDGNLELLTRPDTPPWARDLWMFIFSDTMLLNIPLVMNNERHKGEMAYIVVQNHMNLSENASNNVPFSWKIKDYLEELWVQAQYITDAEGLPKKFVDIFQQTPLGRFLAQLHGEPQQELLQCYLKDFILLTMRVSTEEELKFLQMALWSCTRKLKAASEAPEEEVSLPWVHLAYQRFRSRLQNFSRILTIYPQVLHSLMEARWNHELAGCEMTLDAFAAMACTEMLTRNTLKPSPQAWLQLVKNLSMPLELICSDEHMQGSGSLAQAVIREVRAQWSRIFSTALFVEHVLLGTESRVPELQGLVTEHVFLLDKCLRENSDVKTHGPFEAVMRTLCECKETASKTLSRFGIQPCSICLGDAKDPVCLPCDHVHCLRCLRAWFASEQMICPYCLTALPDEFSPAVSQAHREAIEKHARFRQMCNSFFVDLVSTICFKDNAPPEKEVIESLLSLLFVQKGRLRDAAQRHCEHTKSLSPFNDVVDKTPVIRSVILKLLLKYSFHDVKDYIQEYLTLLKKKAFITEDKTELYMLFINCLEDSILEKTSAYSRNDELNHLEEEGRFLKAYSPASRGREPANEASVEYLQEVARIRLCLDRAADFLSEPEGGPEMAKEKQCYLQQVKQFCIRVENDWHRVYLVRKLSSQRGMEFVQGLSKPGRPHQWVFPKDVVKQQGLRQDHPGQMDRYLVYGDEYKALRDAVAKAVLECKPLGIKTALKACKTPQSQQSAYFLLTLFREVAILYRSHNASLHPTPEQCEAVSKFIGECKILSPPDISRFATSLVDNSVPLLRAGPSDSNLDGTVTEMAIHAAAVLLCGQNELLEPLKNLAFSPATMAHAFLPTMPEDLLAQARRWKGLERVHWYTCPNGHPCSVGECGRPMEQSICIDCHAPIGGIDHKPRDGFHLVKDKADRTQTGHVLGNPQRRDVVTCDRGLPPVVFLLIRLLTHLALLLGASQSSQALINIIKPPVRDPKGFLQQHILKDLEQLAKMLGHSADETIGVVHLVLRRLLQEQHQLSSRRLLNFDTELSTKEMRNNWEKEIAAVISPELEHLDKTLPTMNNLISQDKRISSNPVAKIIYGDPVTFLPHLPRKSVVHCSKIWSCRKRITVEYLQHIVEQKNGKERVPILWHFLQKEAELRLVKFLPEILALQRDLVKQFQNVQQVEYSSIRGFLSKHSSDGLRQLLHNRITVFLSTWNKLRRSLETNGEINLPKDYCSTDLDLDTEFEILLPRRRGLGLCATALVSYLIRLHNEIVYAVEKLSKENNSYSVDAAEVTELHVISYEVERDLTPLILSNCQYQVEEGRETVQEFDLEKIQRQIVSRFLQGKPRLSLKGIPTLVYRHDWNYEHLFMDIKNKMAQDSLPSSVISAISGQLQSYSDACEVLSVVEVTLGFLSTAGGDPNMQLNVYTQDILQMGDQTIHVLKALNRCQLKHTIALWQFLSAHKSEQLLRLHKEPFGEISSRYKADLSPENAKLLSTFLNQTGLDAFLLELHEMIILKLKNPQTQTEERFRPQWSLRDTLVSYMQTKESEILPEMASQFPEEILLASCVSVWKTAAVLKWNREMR
UniProt Q8ND24: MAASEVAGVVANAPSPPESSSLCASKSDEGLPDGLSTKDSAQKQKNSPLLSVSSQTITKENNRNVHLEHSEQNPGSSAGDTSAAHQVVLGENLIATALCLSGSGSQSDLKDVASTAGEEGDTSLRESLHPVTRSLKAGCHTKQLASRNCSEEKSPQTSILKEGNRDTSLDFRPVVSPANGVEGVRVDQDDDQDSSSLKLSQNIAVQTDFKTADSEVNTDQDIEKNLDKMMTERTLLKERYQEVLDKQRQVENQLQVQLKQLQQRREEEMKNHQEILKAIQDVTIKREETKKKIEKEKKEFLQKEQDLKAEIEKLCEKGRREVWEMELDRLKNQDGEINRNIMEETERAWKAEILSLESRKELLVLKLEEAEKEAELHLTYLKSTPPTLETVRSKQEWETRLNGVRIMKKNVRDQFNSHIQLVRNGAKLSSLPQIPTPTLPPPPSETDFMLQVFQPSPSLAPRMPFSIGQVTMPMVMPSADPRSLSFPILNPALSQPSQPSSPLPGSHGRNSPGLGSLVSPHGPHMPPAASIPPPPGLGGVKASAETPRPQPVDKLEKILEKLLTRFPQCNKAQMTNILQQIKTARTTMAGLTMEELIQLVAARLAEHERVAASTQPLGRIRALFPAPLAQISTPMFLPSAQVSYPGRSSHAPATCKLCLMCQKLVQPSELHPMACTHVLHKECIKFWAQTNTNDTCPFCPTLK
UniProt P52758: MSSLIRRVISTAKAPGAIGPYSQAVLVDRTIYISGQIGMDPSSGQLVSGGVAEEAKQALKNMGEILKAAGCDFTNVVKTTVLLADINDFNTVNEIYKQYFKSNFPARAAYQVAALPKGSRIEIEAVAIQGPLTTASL
UniProt P34096: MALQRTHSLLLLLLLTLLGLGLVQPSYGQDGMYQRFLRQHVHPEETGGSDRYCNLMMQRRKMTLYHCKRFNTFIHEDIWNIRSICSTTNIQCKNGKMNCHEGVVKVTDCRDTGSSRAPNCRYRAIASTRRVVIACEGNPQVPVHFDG

Tests used:
Assay in all cases: log2 fold change, soluble protein after heating vs DMSO (PISA); higher = thermal stabilisation; K562 cells, 10 uM, 30 min; active = over 0.2 and 3.5 SD of the protein, either way, in both replicates (recomputed)
IRAK-1-4 Inhibitor I = compound: C1COCCN1CCN2C3=CC=CC=C3N=C2NC(=O)C4=CC(=CC=C4)[N+](=O)[O-] [IRAK-1-4 Inhibitor I]
Outline: (§1)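 Thermal stability values are relative to control samples and come from duplicates. They are expressed as log2 fold changes. For measurement, K562 cells (2×10^6 cells/mL) received 10 μM compound for 30 min, and aliquots were heated for 3 min over 48°C-58°C, pooled, and extracted at 4°C in PBS with 0.5% NP-40. Soluble protein, the supernatant after 21,000xg for 90 min, was quantified by TMTpro 16plex LC-MS/MS with equalised channel sums.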

ibrutinib = compound: C=CC(=O)N1CCC[C@@H](n2nc(-c3ccc(Oc4ccccc4)cc3)c3c(N)ncnc32)C1 [ibrutinib]
Outline: as §1

[1] = compound: CC(=O)c1cnc2ccc(-c3cc(Cl)c(O)c(Cl)c3)nc2c1N[C@H]1CC[C@H](CN(C)C)CC1
Outline: as §1

ralimetinib = compound: CC(C)(C)Cn1c(N)nc2ccc(-c3[nH]c(C(C)(C)C)nc3-c3ccc(F)cc3)nc21 [ralimetinib]
Outline: as §1

[2] = compound: CC(C)(O)CC(=O)NCCn1ccc2ncnc(Nc3ccc(Oc4cccc(C(F)(F)F)c4)c(Cl)c3)c21
Outline: as §1

[3] = compound: CC(C)C1=C2N=C(C=C(N2N=C1)NCC3=CC=CC=C3)NCCCCCCN
Outline: as §1

[4] = compound: CC(C)C[C@@H](C=O)NC(=O)[C@H](CC(C)C)NC(=O)[C@H](CC(C)C)NC(=O)OCc1ccccc1
Outline: as §1

pinometostat = compound: CC(C)N(C[C@H]1O[C@@H](n2cnc3c(N)ncnc32)[C@H](O)[C@@H]1O)[C@H]1C[C@@H](CCc2nc3cc(C(C)(C)C)ccc3[nH]2)C1 [pinometostat]
Outline: as §1

[5] = compound: CC1=C(C(CC(=O)N1)C2=CC=C(C=C2)C(F)(F)F)C(=O)NC3=C(C=C4C(=C3)C=NN4)F
Outline: as §1

[6] = compound: CC1=C(C2=C(C=C1)C(=O)C3=CC=CC=C3N2CCCN)C
Outline: as §1

[7] = compound: CC1=C(C=C(C=C1)NC(=O)C2=CC(=CC=C2)C(C)(C)C#N)NC3=CC4=C(C=C3)N=CN(C4=O)C
Outline: as §1

[8] = compound: CC1=C(C=C(C=C1)NC(=O)C2=CC(=CC=C2)N(C)C)NC(=O)C3=CC=C(C=C3)O
Outline: as §1

[9] = compound: CC1=CC=C(C=C1)SC2=C3C=C(SC3=CN=C2)C(=O)N
Outline: as §1

[10] = compound: CC1=NC(=CC=C1)C2=C(N=C(N2)C(C)(C)C)C3=CC4=NC=CN=C4C=C3
Outline: as §1

Nexturastat A = compound: CCCCN(Cc1ccc(C(=O)NO)cc1)C(=O)Nc1ccccc1 [Nexturastat A]
Outline: as §1

vemurafenib = compound: CCCS(=O)(=O)Nc1ccc(F)c(C(=O)c2c[nH]c3ncc(-c4ccc(Cl)cc4)cc23)c1F [vemurafenib]
Outline: as §1

[11] = compound: CCCS(=O)(=O)Nc1ccc(F)c(C(=O)c2c[nH]c3ncc(Cl)cc23)c1F
Outline: as §1

[12] = compound: CCCc1cc(C)[nH]c(=O)c1CNC(=O)c1cc(-c2ccnc(N3CCN(C)CC3)c2)cc2c1cnn2C(C)C
Outline: as §1

givinostat = compound: CCN(CC)Cc1ccc2cc(COC(=O)Nc3ccc(C(=O)NO)cc3)ccc2c1 [givinostat]
Outline: as §1

barasertib = compound: CCN(CCCOc1ccc2c(Nc3cc(CC(=O)Nc4cccc(F)c4)[nH]n3)ncnc2c1)CCOP(=O)(O)O [barasertib]
Outline: as §1

Measured: log2 fold change

RING1 (UniProt Q06587)
inactive: IRAK-1-4 Inhibitor I -0.016 | ibrutinib -0.007 | [1] -0.068 | ralimetinib -0.017 | [2] -0.352 | [3] -0.059 | [4] 0.045 | pinometostat -0.002 | [5] -0.061 | [6] 0.033 | [7] 0.046 | [8] -0.14 | [9] -0.007 | [10] 0.018 | Nexturastat A -0.012 | vemurafenib 0.205 | [11] 0.139 | [12] -0.005 | givinostat 0.095 | barasertib 0.049

RMND5A (UniProt Q9H871)
inactive: IRAK-1-4 Inhibitor I -0.007 | ibrutinib 0.004 | [1] -0.047 | ralimetinib 0.027 | [2] -0.002 | [3] 0.006 | [4] -0.024 | pinometostat -0.013 | [5] 0.028 | [6] -0.077 | [7] 0.024 | [8] 0.029 | [9] -0.06 | [10] 0.005 | Nexturastat A 0.045 | vemurafenib -0.008 | [11] 0.031 | [12] -0.041 | givinostat -0.009 | barasertib 0.043

RILP (UniProt Q96NA2)
inactive: IRAK-1-4 Inhibitor I 0.012 | ibrutinib -0.004 | [1] -0.126 | ralimetinib 0.013 | [2] 0.015 | [3] -0.041 | [4] -0.003 | pinometostat 0.003 | [5] 0.007 | [6] 0.032 | [7] 0.001 | [8] -0.005 | [9] 0.121 | [10] -0.018 | Nexturastat A 0.002 | vemurafenib 0.147 | [11] 0.085 | [12] 0.029 | givinostat -0.005 | barasertib 0.065

RBM42 (UniProt Q9BTD8)
inactive: IRAK-1-4 Inhibitor I -0.048 | ibrutinib 0.05 | [1] 0.052 | ralimetinib 0.129 | [2] 0.006 | [3] -0.032 | [4] 0.071 | pinometostat 0.022 | [5] 0.039 | [6] -0.174 | [7] -0.006 | [8] 0.011 | [9] -0.075 | [10] -0.016 | Nexturastat A 0.092 | vemurafenib -0.036 | [11] 0.012 | [12] 0.08 | givinostat 0.064 | barasertib -0.091

RNF213 isoform 4 (UniProt Q63HN8)
inactive: IRAK-1-4 Inhibitor I -0.128 | ibrutinib 0.041 | [1] -0.123 | ralimetinib -0.072 | [2] -0.076 | [3] -0.025 | [4] 0.17 | pinometostat 0.178 | [5] 0.176 | [6] 0.049 | [7] 0.205 | [8] 0.042 | [9] -0.061 | [10] -0.066 | Nexturastat A 0.142 | vemurafenib 0.102 | [11] 0.039 | [12] -0.359 | givinostat 0.118 | barasertib 0.063

RIOK1 (UniProt Q9BRS2)
inactive: IRAK-1-4 Inhibitor I 0.004 | ibrutinib 0.005 | [1] -0.096 | ralimetinib 0.008 | [2] 0.023 | [3] 0.097 | [4] 0.031 | pinometostat -0.02 | [5] -0.005 | [6] 0.025 | [7] -0.022 | [8] 0.014 | [9] -0.032 | [10] -0.008 | Nexturastat A 0.067 | vemurafenib -0.012 | [11] -0.028 | [12] -0.035 | givinostat -0.024 | barasertib -0.003

RFFL (UniProt Q8WZ73)
inactive: IRAK-1-4 Inhibitor I 0.049 | ibrutinib 0.06 | [1] 0.123 | ralimetinib -0.054 | [2] -0.103 | [3] 0.102 | [4] 0.049 | pinometostat -0.08 | [5] -0.041 | [6] 0.108 | [7] 0.173 | [8] 0.048 | [9] 0.038 | [10] -0.102 | Nexturastat A 0.274 | vemurafenib 0.17 | [11] -0.267 | [12] -0.071 | givinostat 0.032 | barasertib -0.132

RCN2 isoform 2 (UniProt Q14257)
inactive: IRAK-1-4 Inhibitor I -0.008 | ibrutinib -0.065 | [1] -0.004 | ralimetinib -0.026 | [2] -0.014 | [3] 0.009 | [4] -0.002 | pinometostat 0 | [5] 0.028 | [6] -0.036 | [7] -0.005 | [8] 0.048 | [9] 0.016 | [10] 0.002 | Nexturastat A 0.007 | vemurafenib 0.007 | [11] -0.007 | [12] -0.003 | givinostat 0.003 | barasertib 0.013

RNF121 (UniProt Q9H920)
inactive: IRAK-1-4 Inhibitor I 0.137 | ibrutinib -0.031 | [1] 0.035 | ralimetinib -0.01 | [2] 0.126 | [3] -0.071 | [4] 0.07 | pinometostat -0.114 | [5] 0.122 | [6] 0.01 | [7] -0.06 | [8] -0.098 | [9] -0.02 | [10] 0.034 | Nexturastat A -0.008 | vemurafenib 0.059 | [11] 0 | [12] 0.038 | givinostat -0.072 | barasertib -0.054

RNF214 (UniProt Q8ND24)
inactive: IRAK-1-4 Inhibitor I -0.037 | ibrutinib 0.086 | [1] -0.071 | ralimetinib 0.01 | [2] -0.068 | [3] -0.001 | [4] 0.089 | pinometostat 0.084 | [5] 0.002 | [6] 0.086 | [7] -0.083 | [8] -0.015 | [9] 0.007 | [10] -0.026 | Nexturastat A 0.125 | vemurafenib 0.073 | [11] 0.036 | [12] 0.049 | givinostat 0.047 | barasertib -0.018

RCC2 (UniProt Q9P258)
inactive: IRAK-1-4 Inhibitor I 0.019 | ibrutinib -0.01 | [1] -0.038 | ralimetinib -0.023 | [2] -0.02 | [3] -0.044 | [4] -0.003 | pinometostat -0.028 | [5] -0.042 | [6] 0.141 | [7] 0.006 | [8] -0.002 | [9] 0.004 | [10] 0.051 | Nexturastat A -0.081 | vemurafenib 0.005 | [11] 0.038 | [12] -0.011 | givinostat -0.035 | barasertib 0.005

RMND1 (UniProt Q9NWS8)
inactive: IRAK-1-4 Inhibitor I 0.033 | ibrutinib 0.019 | [1] 0.035 | ralimetinib -0.016 | [2] -0.059 | [3] -0.01 | [4] 0.016 | pinometostat -0.026 | [5] -0.054 | [6] 0.027 | [7] -0.002 | [8] 0.026 | [9] -0.025 | [10] 0.024 | Nexturastat A -0.014 | vemurafenib -0.039 | [11] 0.034 | [12] 0.103 | givinostat -0.023 | barasertib 0.051

RFXAP (UniProt O00287)
inactive: IRAK-1-4 Inhibitor I 0 | ibrutinib 0.013 | [1] -0.091 | ralimetinib 0.007 | [2] 0.028 | [3] 0.038 | [4] 0.097 | pinometostat -0.005 | [5] 0.023 | [6] -0.03 | [7] -0.008 | [8] -0.023 | [9] -0.026 | [10] -0.031 | Nexturastat A 0.123 | vemurafenib -0.076 | [11] -0.048 | [12] 0.03 | givinostat 0.046 | barasertib -0.019

RBPJ (UniProt Q06330)
inactive: IRAK-1-4 Inhibitor I -0.012 | ibrutinib 0.001 | [1] 0.051 | ralimetinib -0.028 | [2] -0.011 | [3] 0.088 | [4] 0.05 | pinometostat -0.061 | [5] 0.008 | [6] -0.176 | [7] -0.05 | [8] 0.077 | [9] 0.002 | [10] 0.026 | Nexturastat A -0.025 | vemurafenib -0.043 | [11] 0 | [12] 0.049 | givinostat -0.024 | barasertib -0.024

RIDA (UniProt P52758)
inactive: IRAK-1-4 Inhibitor I 0.062 | ibrutinib 0.034 | [1] 0.046 | ralimetinib -0.008 | [2] -0.006 | [3] 0.062 | [4] -0.044 | pinometostat -0.024 | [5] 0.052 | [6] 0.046 | [7] -0.037 | [8] -0.012 | [9] 0.004 | [10] 0.032 | Nexturastat A 0.024 | vemurafenib 0.094 | [11] -0.025 | [12] -0.065 | givinostat -0.004 | barasertib 0.009

2 successive records already listed, for reference:
RMND1 (UniProt Q9NWS8)
inactive: IRAK-1-4 Inhibitor I 0.033 | ibrutinib 0.019 | [1] 0.035 | ralimetinib -0.016 | [2] -0.059 | [3] -0.01 | [4] 0.016 | pinometostat -0.026 | [5] -0.054 | [6] 0.027 | [7] -0.002 | [8] 0.026 | [9] -0.025 | [10] 0.024 | Nexturastat A -0.014 | vemurafenib -0.039 | [11] 0.034 | [12] 0.103 | givinostat -0.023 | barasertib 0.051

RFXAP (UniProt O00287)
inactive: IRAK-1-4 Inhibitor I 0 | ibrutinib 0.013 | [1] -0.091 | ralimetinib 0.007 | [2] 0.028 | [3] 0.038 | [4] 0.097 | pinometostat -0.005 | [5] 0.023 | [6] -0.03 | [7] -0.008 | [8] -0.023 | [9] -0.026 | [10] -0.031 | Nexturastat A 0.123 | vemurafenib -0.076 | [11] -0.048 | [12] 0.03 | givinostat 0.046 | barasertib -0.019

(list continues)

RNASE4 (UniProt P34096)
inactive: IRAK-1-4 Inhibitor I -0.064 | ibrutinib 0.158 | [1] 0.037 | ralimetinib 0.034 | [2] -0.085 | [3] 0.014 | [4] 0.13 | pinometostat -0.014 | [5] 0.162 | [6] -0.01 | [7] 0.082 | [8] -0.01 | [9] 0.052 | [10] 0.073 | Nexturastat A 0.222 | vemurafenib 0.026 | [11] 0.051 | [12] -0.466 | givinostat -0.172 | barasertib 0.025
